Experimental data taken from patent US20150010545A1 (KADMON CORPORATION, LLC, priority 2011, published 2015).
At least one structure is not confirmed: it was looked up by name or label, or the drawing left a doubt.

Assays:
JIMT-1 cells = test: JIMT-1 cell proliferation assay (CellTiter 96 AQueous); assay type: cell-based; conditions: MTS assay after 72 hrs
JIMT-1 tumors = assay type: in vivo; conditions: EXEL-7647 80 mg/kg orally once daily, alone, SCID mice

## CN1CCN(CCOc2cc(OC3CCOCC3)c3c(Nc4c(Cl)ccc5c4OCO5)ncnc3c2)CC1 [AZD0530, saracatinib, reference compound]
JIMT-1 cells
  effectiveness in cell proliferation assay compared with EXEL-7647: less effective

## COc1cc2c(Nc3ccc(Cl)c(Cl)c3F)ncnc2cc1OCC1C[C@@H]2CN(C)C[C@@H]2C1 (stereo partly drawn) [EXEL-7647, N-(3,4-dichloro-2-fluorophenyl)-7-({[(3aR,6aS)-2-methyloctahydrocyclopenta[c]pyrrol-5-yl]methyl}oxy)-6-(methyloxy)quinazolin-4-amine]
JIMT-1 tumors
  JIMT-1 tumor growth: prevented tumor growth
